Results are given in words; binding and its absence hold for the method and conditions named. Binding can be weak; no strength is given. Sequences can lack the tags named with a protein.
Biological target: SpNtr1 fused to the GAL4-binding domain (S. pombe)
Experiment: two-hybrid

Row | binding | Binder
1 | binds | Cwf23 ΔJ fused to the GAL4 activation domain (domain or fragment, UniProt Q9P7C6 67-289) RKAYDSERFAKLARKRREEAFNFQRKSMVDDLRERERQFYDSLEKKENERDRLQEKLRALQEESANLRRQRENRLREEQEQSKRRKQETPSSKISELDRSIRIRWKRKYADQVNDAYLRSIYSSFGTLQNVVIQKDISKEKKYVYSIIVFETLSSAYSAINAEKPSKIYDVQWLKPPKSNSNTPTEKDTTVEDYEEITIMRMKQKHKQKQKENERKATSTMNA
2 | binds | Cwf23 wild type fused to the GAL4 activation domain (protein, UniProt Q9P7C6 1-289) MASEGDSIDYYELLGINEDAQDQEIHRAWRKTSLKYHPDKNPNDPKAAEKFHMLQLAYNALIDVQLRKAYDSERFAKLARKRREEAFNFQRKSMVDDLRERERQFYDSLEKKENERDRLQEKLRALQEESANLRRQRENRLREEQEQSKRRKQETPSSKISELDRSIRIRWKRKYADQVNDAYLRSIYSSFGTLQNVVIQKDISKEKKYVYSIIVFETLSSAYSAINAEKPSKIYDVQWLKPPKSNSNTPTEKDTTVEDYEEITIMRMKQKHKQKQKENERKATSTMNA
3 | binds | Cwf23 H37Q fused to the GAL4 activation domain (protein, UniProt Q9P7C6 1-289) MASEGDSIDYYELLGINEDAQDQEIHRAWRKTSLKYQPDKNPNDPKAAEKFHMLQLAYNALIDVQLRKAYDSERFAKLARKRREEAFNFQRKSMVDDLRERERQFYDSLEKKENERDRLQEKLRALQEESANLRRQRENRLREEQEQSKRRKQETPSSKISELDRSIRIRWKRKYADQVNDAYLRSIYSSFGTLQNVVIQKDISKEKKYVYSIIVFETLSSAYSAINAEKPSKIYDVQWLKPPKSNSNTPTEKDTTVEDYEEITIMRMKQKHKQKQKENERKATSTMNA
